PubChem BioAssay AID1671195 – Yale University – 2021
Aim: 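Genes whose knockdown alters LDL uptake in liver cancer cells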 (primary screen). System: human Huh7 hepatoma cells. Reagent: siRNA pool against human genes, 18 nM. Duration: about 2 to 2.5 days of knockdown, then 8 h LDL uptake. Conditions: DiI-labelled LDL at 30 µg/ml for 8 h, in lipoprotein-deficient serum medium. Detection: 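Fluorescent LDL signal imaged in cells, scaled to the plate median, robust z-score for each replicate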. Reading the numbers: robust z-score: higher = more LDL uptake after knockdown. Hit rule: 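a gene counts as active if at least two replicate z-scores exceed ±2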.
This is one part, drawn at random, of about 22,000 reagents. Of all reagents, about 1,510 (6.9%) are marked active. 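Active includes knockdowns raising or lowering LDL uptake; positive z-scores mean more uptake, negative mean less.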 Entries without a mark were called inactive.

For SGO1 the deposit lists robust z-score, replicate 1 = -0.501; robust z-score, replicate 2 = 0.328; robust z-score, replicate 3 = 1.2.
ABCD1 showed robust z-score, replicate 1 = -0.144; robust z-score, replicate 2 = 0.438; robust z-score, replicate 3 = -0.459.
Depletion of CLPTM1 resulted in: robust z-score, replicate 1 = -0.899; robust z-score, replicate 2 = 0.0642; robust z-score, replicate 3 = -0.352.
CTR9 showed robust z-score, replicate 1 = -0.592; robust z-score, replicate 2 = -0.916; robust z-score, replicate 3 = 1.07.
After knock-down of XPR1, the screen gave robust z-score, replicate 1 = -0.689; robust z-score, replicate 2 = -1.24; robust z-score, replicate 3 = -1.22.
ZNF91 gave robust z-score, replicate 1 = -0.652; robust z-score, replicate 2 = -1.41; robust z-score, replicate 3 = -0.652.
Depletion of ZNF334 resulted in: robust z-score, replicate 1 = 0.4; robust z-score, replicate 2 = 0.495; robust z-score, replicate 3 = 0.395.
For SHC4, the entry reads robust z-score, replicate 1 = 0.943; robust z-score, replicate 2 = 0.153; robust z-score, replicate 3 = 0.223.
RBM34 showed robust z-score, replicate 1 = -0.753; robust z-score, replicate 2 = -1; robust z-score, replicate 3 = -0.246.
After knock-down of SPATS2, the record shows robust z-score, replicate 1 = 2.95 (active); robust z-score, replicate 2 = 2.15; robust z-score, replicate 3 = 2.73.
After knock-down of FEZF1 the results were robust z-score, replicate 1 = 0.827; robust z-score, replicate 2 = 0.947; robust z-score, replicate 3 = 0.55.
Knock-down of LMTK2 came out at: robust z-score, replicate 1 = 1.72; robust z-score, replicate 2 = 0.353; robust z-score, replicate 3 = 0.27.

No new results follow: an excerpt of the list.
SPATS2: robust z-score, replicate 1 = 2.95 (active); robust z-score, replicate 2 = 2.15; robust z-score, replicate 3 = 2.73
FEZF1: robust z-score, replicate 1 = 0.827; robust z-score, replicate 2 = 0.947; robust z-score, replicate 3 = 0.55
